Drawing on article PMC9046089, “CCNE1 amplification is synthetic lethal with PKMYT1 kinase inhibition” (Nature, 2022), this text covers EC50 for one molecule.

What all share (format): cell-based
One experiment concerns HCC1569 cells. As to the kind of experiment: Cell proliferation assay (Incucyte growth inhibition, synergy). The conditions noted are these: 3 replicates. The source says:
(§1) . Per cent confluence relative to a non-treated control was used to evaluate growth inhibition induced by test compounds. […] (https://synergyfinder.fimm.fi).

A further experiment deals with COV362 cells. As to the kind of experiment: Cell proliferation assay (Incucyte growth inhibition). The note with it: 3 replicates.
Description: as §1

The subject of the next experiment is DOTC24510 cells. The experiment is described as above. The conditions noted are these: Homo sapiens, DoTc2-4510, read-out: EC50 for growth inhibition.
Description: as §1

A further experiment concerns KYSE30 cells. The description is as above. The conditions noted are these: 3 replicates.
Description: as §1

Another experiment has as its system NUGC3 cells. The description is as above. The note with it: 3 replicates.
Description: as §1

A further experiment relates to OVCAR3 cells. The experiment is described as above. The conditions noted are these: 3 replicates.
Description: as §1

A further experiment relates to SNU8 cells. The description is as above.
Description: as §1

The next experiment deals with SUM149PT cells. Described as above.
Description: as §1

The test system of a further experiment is TOV112D cells. The experiment is described as above. The conditions noted are these: Homo sapiens, read-out: EC50 for growth inhibition.
Description: as §1

Usually EC50 stands for the concentration at which the effect is half-maximal.

Where “and” joins values, the source holds several entries; their conditions need not be identical. Equal entries are not always repeated. Where two headings read alike, the source gives them in different places.

As for `CCc1cnn2c(NCc3ccc[n+]([O-])c3)cc(N3CCCC[C@H]3CCO)nc12` [dinaciclib], the EC50 in the experiment on HCC1569 cells (Homo sapiens, HCC1569, read-out: EC50 for growth inhibition, HCC1569) turned out to be 7 nM; in the experiment on HCC1569 cells (read-out: EC50 for growth inhibition, HCC1569), 6 nM; in the experiment on COV362 cells (COV362, COV362), 11 nM; in the experiment with COV362 cells (COV362) it was 10 nM; in the experiment with DOTC24510 cells, 9 nM; with KYSE30 cells (Homo sapiens, KYSE-30, read-out: EC50 for growth inhibition, KYSE30), 7 nM. Moreover, the EC50 in the experiment on KYSE30 cells (read-out: EC50 for growth inhibition, KYSE30) is 6 nM; in the experiment with NUGC3 cells (Homo sapiens, NUGC-3, read-out: EC50 for growth inhibition, NUGC3) it was 9 nM; in the experiment on NUGC3 cells (read-out: EC50 for growth inhibition, NUGC3), 10 nM and 8 nM; with OVCAR3 cells (Homo sapiens, OVCAR-3, read-out: EC50 for growth inhibition, OVCAR3), 7 nM; in the experiment with OVCAR3 cells (read-out: EC50 for growth inhibition, OVCAR3), 9 nM and 6.6 nM; in the experiment with SNU8 cells (read-out: EC50 for growth inhibition, SNU8; 3 replicates) it was 9 nM. The EC50 stood at 10 nM with SNU8 cells (read-out: EC50 for growth inhibition; SNU8; 3 replicates); 7 nM in the experiment with SUM149PT cells (Homo sapiens, read-out: EC50 for growth inhibition, SUM149PT, 3 replicates); 8 nM in the experiment with SUM149PT cells (read-out: EC50 for growth inhibition, 3 replicates); 8 nM with TOV112D cells.
